Test results taken from PubChem BioAssay AID2551 (National Center for Advancing Translational Sciences (NCATS), 2010).
Several values for one entry are separate records, joined by “and”; a condition that tells them apart may be missing. Equal values may be shown once. In all, about 310,000 compounds went through this assay and about 17,000 (5.5%) were called active. This list was built around the results that the source calls inconclusive (neither active nor inactive); the mix of calls is not that of the screen. Calls follow the shape of the dose curve; as a rule, active = well fitted inhibition curve with a large enough effect; inconclusive = small, poorly fitted or top-dose-only effect, or effect the other way; inactive = no such curve, though single readings can be large or run the other way. Potencies of inconclusive entries are doubtful fits and often do not repeat.

Chains of the proteins cited; added tags and fusions are not shown. Lines headed by an entry give the natural chain unless they say otherwise; changes in a name come on top.
UniProt P51450: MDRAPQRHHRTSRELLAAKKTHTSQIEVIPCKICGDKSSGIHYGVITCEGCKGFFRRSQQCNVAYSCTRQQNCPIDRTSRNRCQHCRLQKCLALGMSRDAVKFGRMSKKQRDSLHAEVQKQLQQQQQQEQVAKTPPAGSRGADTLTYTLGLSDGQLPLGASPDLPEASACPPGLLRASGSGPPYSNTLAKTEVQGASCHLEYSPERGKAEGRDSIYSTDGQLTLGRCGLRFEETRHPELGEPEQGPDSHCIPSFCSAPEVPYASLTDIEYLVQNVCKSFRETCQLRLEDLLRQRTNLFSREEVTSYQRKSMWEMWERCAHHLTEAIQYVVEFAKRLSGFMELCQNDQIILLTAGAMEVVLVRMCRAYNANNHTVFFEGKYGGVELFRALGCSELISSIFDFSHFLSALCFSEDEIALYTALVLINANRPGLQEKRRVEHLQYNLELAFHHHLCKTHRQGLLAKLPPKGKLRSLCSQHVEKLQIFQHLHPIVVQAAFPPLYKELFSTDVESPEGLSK

These compounds were tested against Nuclear receptor ROR-gamma (Mus musculus) (UniProt P51450) (assay: qHTS for inhibitors of ROR gamma transcriptional activity). Details: Drosophila S2 Gal4-RORgamma UAS-luciferase reporter, 20 h; activity change, negative = inhibition: at 53.6 µM (top of the series).
Method in brief: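 Luciferase reporter read in Schneider cells carrying Gal4-RORγ (mouse) and UAS-Photinus luciferase; cells given compound 1 h before 700 uM copper sulfate induction, then incubated 20 h at ambient temperature.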
% is scaled to controls: 0 for no effect and ±100 for the full control effect; potency is read from the fitted curve at half-maximal effect.
Also: nearly all actives have a fitted effect of over 60% in size.

Potency, inactive:
CC(=O)Nc1ccc(Cc2ccncc2)cc1
Cc1ccc(C)c(NC(=O)CN(C)C(=O)c2cc(-c3cccs3)nn2-c2ccccc2)c1
Cc1ccc(S(=O)(=O)NCC2CCCO2)cc1 (stereo not given)
CC(C)(C)c1ccc(C(=O)N/C(=C\c2ccco2)C(=O)Nc2ccccc2C(=O)O)cc1
Cc1cc(C)c(C(=O)Cn2nc(C(=O)O)c3ccccc3c2=O)cc1C
CC1=C(C)C(=O)N(C(C)CCc2ccccc2)C1=O (stereo not given)
COc1ccc(CCNC(=O)COc2ncnc3cc([N+](=O)[O-])ccc23)cc1
Cc1nn(-c2ccccc2)c(C)c1-c1nnc(C(F)(F)F)o1
O=C(Nc1scc(-c2ccccc2)c1C(=O)O)c1ccccc1Cl
CC(C)NC(=O)[C@H](CSCc1ccccc1)N1Cc2ccccc2C1=O
COc1cccc(Nc2ncc3nc(-c4ccc(F)cc4)c(=O)n(CCC#N)c3n2)c1
O=C(CC1C(=O)NCCN1Cc1ccccn1)NCCc1ccccc1F (stereo not given)
Nc1nonc1OCCN1CCN(c2ccc([N+](=O)[O-])c3cccnc23)CC1
COc1cc(O)c2c(c1)OC(C)(C)CC2=O
CC1CCCCN1C(=O)CSc1ccc(-c2ccc(F)cc2)nn1 (stereo not given)
COc1ccc(-c2nnc(N3CCOCC3)c3ccccc23)cc1
COCCn1c(C)cc(C(=O)COC(=O)c2ccccc2Br)c1C
CCOC(=O)CCCNC(=O)CCNC(=O)c1ccc(OCC(C)C)cc1
COC(=O)c1cc2sc(Cl)cc2n1Cc1nc(-c2cccc(C)c2)oc1C
O=c1[nH]c2c(s1)C(c1cccnc1)C1C3CCC(C3)C1S2 (stereo not given)
O=C1c2ccccc2C(=O)N1CC(=O)N1c2ccccc2Sc2ccc(C(F)(F)F)cc21
C[n+]1ccccc1C1CCCC/C1=N\NC(N)=S (stereo not given)
COc1ccccc1NC(=O)Cn1c(O)c(N=NC(=O)c2ccccc2O)c2ccccc21
O=C(/C=C/c1cccc(OCc2ccccc2)c1)c1cccnc1

Potency, inconclusive:
O=C(NCC1CCCO1)c1cccc(Oc2ccc([N+](=O)[O-])cc2)c1 (stereo not given) 12.6 µM [activator, single point]
C=Cc1cccc(NC(=O)c2ccc(NC(=O)c3ccco3)cc2)c1 7.08 µM [activator, full curve, poor fit]
Cc1sc(NC(=O)CSc2ncn(-c3ccccc3)n2)nc1-c1ccccc1 0.501 µM [activator, single point]
CS(=O)(=O)Nc1ccc(C2=NN(C(=O)c3ccco3)C(c3ccc(F)cc3)C2)cc1 (stereo not given) 35.5 µM [activator, partial curve]
Cc1ccn2cc(C34CC5CC(CC(C5)C3)C4)nc2c1 8.91 µM [inhibitor, partial curve, poor fit]
O=C(COC(=O)c1cccnc1)Nc1ccccc1 6.31 µM [inhibitor, single point]
Cc1csc(NC(=O)Cc2ccc(Br)cc2)n1 17.8 µM [activator, partial curve, poor fit]
O=C(COC(=O)c1c2c(nc3ccccc13)CCN(Cc1ccccc1)C2)Nc1c(F)cccc1F 25.1 µM [activator, partial curve, poor fit]
Cc1ccc(/C(N)=N/OC(=O)c2ccc3c(c2)OCO3)cc1 31.6 µM [inhibitor, single point]
CCC1Sc2ccc(S(=O)(=O)Nc3ccc(OC)c(OC)c3)cc2NC1=O (stereo not given) 1.58 µM [activator, partial curve]
CCOC(=O)c1ccc(NC(=O)/C=C/c2cccs2)cc1 2.82 µM [activator, partial curve, poor fit]
Cc1ccccc1NC(=O)c1cccc(S(=O)(=O)Oc2ccc([N+](=O)[O-])cc2)c1 12.6 µM [activator, partial curve]
COc1ccc(N2CCN(CCNC(=O)c3nnc(Cc4c(F)cccc4Cl)o3)CC2)cc1 35.5 µM [inhibitor, single point]
O=C1Nc2ccccc2S/C1=C/NCc1ccccc1Cl 15.8 µM [activator, single point]
CCCOC(=O)C1=C(C)NC2=C(C(=O)CCC2)C1c1cc(OC)ccc1OC (stereo not given) 6.31 µM [inhibitor, single point]
CCOc1ccc(-c2c[n+]3c(n2-c2ccccc2)CCCCC3)cc1 31.6 µM [inhibitor, single point]
C/C(CC(=O)Nc1ccc(Cl)cc1Cl)=N\NC(=O)c1ccncc1 35.5 µM [inhibitor, single point]
O=C(CSc1nnc(Cn2cnc3ccccc32)o1)c1ccccc1 35.5 µM [inhibitor, single point]
CCOC(=O)N/N=C/c1c(C)nn(-c2cccc(C(F)(F)F)c2)c1Cl 35.5 µM [activator, single point]
Cn1c(Cn2c(=O)sc3ccccc32)nnc1SCC(=O)NCc1ccccc1Cl 5.01 µM [activator, single point]
COc1cc(OC)cc(C(=O)NC(=S)NNC(=O)c2cnccn2)c1 17.8 µM [inhibitor, single point]
CCCc1cc(=O)oc2cc(O[C@@H]3O[C@H](CO)[C@@H](O)[C@H](O)[C@H]3O)ccc12 35.5 µM [activator, single point]
COc1ccc(C(=O)NC(=S)N(CCC(C)C)c2c(N)n(Cc3ccccc3)c(=O)[nH]c2=O)cc1 15.8 µM [inhibitor, single point]
CCc1cccc(NC(=O)Cn2cccc2)c1 22.4 µM [inhibitor, single point]
O=C(CSc1nc(-c2ccccc2)nn1C(=O)c1ccccc1)Nc1cccc([N+](=O)[O-])c1 14.1 µM [inhibitor, partial curve]
CCCCc1cc2c(s1)CCCC/C2=N/O 22.4 µM [activator, partial curve, poor fit]
CN1CCN(C(=O)Cn2c(=O)oc3cc(S(=O)(=O)NCc4ccccc4)ccc32)CC1 0.562 µM [inhibitor, single point]
CC1(C)Cc2c(sc3ncn4c(=S)[nH]nc4c23)CO1 2.24 µM [inhibitor, full curve, poor fit]
N#C/C(=C\c1c[nH]c2ccccc12)C(=O)NC1CCCC1 20 µM [activator, single point]
Cc1ccc(OCc2nc(-c3ccccc3)no2)c(C)c1 0.251 µM [activator, partial curve, poor fit]
COc1ccc2c(c1)c1nnc(SCC(=O)NC3CC3)nc1n2C 10 µM [inhibitor, partial curve]
CC(C)Oc1cccc(C(=O)C2CCCN(C(=O)c3ccsc3)C2)c1 (stereo not given) 14.1 µM [activator, partial curve]
c1ccc(Nc2nc(-c3cccnc3)cs2)nc1 11.2 µM [inhibitor, single point]
COc1ccc(N2CCN(C(=O)c3cc(-c4cccs4)nc4ccccc34)CC2)cc1 8.91 µM [activator, partial curve]
CCCCCC(=O)NNC(=S)NC(=O)c1ccccc1[N+](=O)[O-] 12.6 µM [activator, single point]
CCN1C(=NCCCOC(C)C)N[C@@H](CCc2ccccc2)[C@H](C(=O)NCCCOC(C)C)[C@H]1C 35.5 µM [activator, single point]
COC(=O)C1=C(C)N(Cc2ccc(OC)cc2)C(=O)C1 12.6 µM [inhibitor, partial curve, poor fit]

Part of the list above in order of count of non-hydrogen atoms, low to high:
Potency, inconclusive:
Cc1ccc(OCc2nc(-c3ccccc3)no2)c(C)c1 0.251 µM [activator, partial curve, poor fit]
CCCc1cc(=O)oc2cc(O[C@@H]3O[C@H](CO)[C@@H](O)[C@H](O)[C@H]3O)ccc12 35.5 µM [activator, single point]
COc1ccc(C(=O)NC(=S)N(CCC(C)C)c2c(N)n(Cc3ccccc3)c(=O)[nH]c2=O)cc1 15.8 µM [inhibitor, single point]

Next part.

Potency, active:
CCN(CC)S(=O)(=O)c1ccc(N=Nc2c(C)[nH]n(C(N)=S)c2=O)cc1 0.0501 µM
COc1cccc(-c2c(C(=O)N/N=C/c3ccc(C)o3)nnn2-c2nonc2N)c1 10 µM
Oc1ccc(O)c(Cc2nc3ccccc3[nH]2)c1 15.8 µM
CS(=O)(=O)c1ccc(C(=O)NCCN2C(=O)S/C(=C\c3cccnc3)C2=O)cc1[N+](=O)[O-] 5.62 µM
NCCCCCc1nnc(SCc2ccccc2Cl)o1 1 µM
Cc1cc(Cl)ccc1N=c1ssnc1Cl 11.2 µM
Cc1cc(/C=C2\NC(=S)N(C)C2=O)ccc1N1CCCC1 3.55 µM
Cc1ccc2oc(-c3cccc(N)c3)nc2c1 11.2 µM
Cc1ccc(C)c(NC(=S)NNC(=O)c2csc3c2CCC(C)C3)c1 (stereo not given) 5.01 µM
CC(=O)Oc1ccc(N2C(=O)C3C(C2=O)C2(C)C=CC3(C)O2)cc1 (stereo not given) 3.98 µM
Cc1ccc(N=Cc2c(C)[nH]n(-c3nc4ccccc4[nH]3)c2=O)cc1 2.82 µM
CSc1nc2sc3c(c2c(=S)[nH]1)CC(C)(C)OC3 3.16 µM
Cc1nnc(NC(=O)CSc2cn(Cc3ccccc3)c3ccccc23)s1 11.2 µM

Activity change, negative = inhibition, inactive:
COc1ccc(-c2ccc3c(n2)CCCN3C[C@H](O)CN2CCCc3nc(-c4ccc(Br)cc4)ccc32)cc1 17.6% [at 10 µM] and 16.6% [at 10 µM]
